Some of these results come from one statement about several compounds together. For at least one compound, name, drawing or mass did not settle the structure.
What was measured:
Format in all cases: in vivo
[1] = tested on: Western Flower Thrips (Frankliniellla occidentalis (Pergande)); experiment: Test E: control of Western Flower Thrips on Soleil bean plant (spray, contact and/or systemic); details: sprayed at 250 ppm; held 6 days; criterion is 30% or less plant damage and/or 100% mortality
[2] = tested on: diamondback moth (Plutella xylostella (L.)); experiment: Test A: control of diamondback moth on mustard plant (spray); details: sprayed at 250 ppm; assessed after 6 days; criterion is 40% or less feeding damage and/or 100% mortality
[3] = tested on: potato leafhopper (Empoasca fabae (Harris)); experiment: Test B: control of potato leafhopper on Soleil bean plant (spray, contact and/or systemic); details: assessed after 6 days
Protocol: (§1) Test compounds were formulated using a solution containing 10% acetone, 90% water and 300 ppm X-77® Spreader Lo-Foam Formula non-ionic surfactant containing alkylarylpolyoxyethylene, free fatty acids, glycols and isopropanol (Loveland Industries, Inc. Greeley, Colo., USA). The formulated compounds were applied in 1 mL of liquid through a SUJ2 atomizer nozzle with 1/8 JJ custom body (Spraying Systems Co. Wheaton, Ill., USA) positioned 1.27 cm (0.5 inches) above the top of each test unit. Test compounds were sprayed at the rates indicated, and each test was replicated three times.
For evaluating control of potato leafhopper (Empoasca fabae (Harris)) through contact and/or systemic means, the test unit consisted of a small open container with a 5-6-day-old Soleil bean plant (primary leaves emerged) inside. White sand was added to the top of the soil, and one of the primary leaves was excised prior to application of the test compound.
Test compounds were formulated and sprayed at 250 and/or 50 ppm. After spraying of the formulated test compound, the test units were allowed to dry for 1 hour before they were post-infested with 5 potato leafhoppers (18-to-21-day-old adults). A black, screened cap was placed on the top of the test unit, and the test units were held for 6 days in a growth chamber at 24° C. and 70% relative humidity. Each test unit was then visually assessed for insect mortality.

[4] = tested on: green peach aphid (Myzus persicae (Sulzer)); experiment: Test C: control of green peach aphid on radish plant (spray, contact and/or systemic); details: assessed after 6 days
Protocol: as §1
For evaluating control of green peach aphid (Myzus persicae (Sulzer)) through contact and/or systemic means, the test unit consisted of a small open container with a 12-15-day-old radish plant inside. This was pre-infested by placing on a leaf of the test plant 30-40 aphids on a piece of leaf excised from a culture plant (cut-leaf method). The aphids moved onto the test plant as the leaf piece desiccated. After pre-infestation, the soil of the test unit was covered with a layer of sand.
Test compounds were formulated and sprayed at 250 and/or 50 ppm. After spraying of the formulated test compound, each test unit was allowed to dry for 1 hour and then a black, screened cap was placed on top. The test units were held for 6 days in a growth chamber at 19-21° C. and 50-70% relative humidity. Each test unit was then visually assessed for insect mortality.

[5] = tested on: sweetpotato whitefly (Bemisia tabaci (Gennadius)); experiment: Test F: control of sweetpotato whitefly on cotton plant (spray, contact and/or systemic); details: sprayed at 250 ppm; assessed after 13 days
Protocol: as §1
For evaluating control of the sweetpotato whitefly (Bemisia tabaci (Gennadius)) through contact and/or systemic means, the test unit consisted of a small open container with a 12-14-day-old cotton plant inside. Prior to the spray application, both cotyledons were removed from the plant, leaving one true leaf for the assay. Adult whiteflies were allowed to lay eggs on the plant and then were removed from the test unit. Cotton plants infested with at least 15 eggs were submitted to the test for spraying.
Test compounds were formulated and sprayed at 250 and/or 50 ppm. After spraying, the test units were allowed to dry for 1 hour. The cylinders were then removed, and the units were taken to a growth chamber and held for 13 days at 28° C. and 50-70% relative humidity. Each test unit was then visually assessed for insect mortality.

CC(NC(=O)c1ccc2nn(-c3cccnc3)cc2c1)C1CC1 (centres unmarked) [Compound 415]
plant damage (very good to excellent levels of control efficacy: 30% or less plant damage and/or 100% mortality) [1]: ≤ 30%

CSCCNC(=O)c1ccc(F)c2nn(-c3cccnc3)cc12 [Compound 502]
feeding damage (very good to excellent levels of control efficacy: 40% or less feeding damage and/or 100% mortality) [2]: ≤ 40%

O=C(NC1CC1)c1ccc2nn(-c3cncc(F)c3)cc2c1 [Compound 410]
plant damage (very good to excellent levels of control efficacy: 30% or less plant damage and/or 100% mortality) [1]: ≤ 30%

CC(F)(F)CNC(=O)c1ccc2nn(-c3cncc(F)c3)cc2c1 [Compound 132]
plant damage (very good to excellent levels of control efficacy: 30% or less plant damage and/or 100% mortality) [1]: ≤ 30%

CC(NC(=O)c1cncc2nn(-c3cccnc3)cc12)C1CC1 (centres unmarked) [Compound 314]
plant damage (very good to excellent levels of control efficacy: 30% or less plant damage and/or 100% mortality) [1]: ≤ 30%

O=C(c1ccc2nn(-c3cccnc3)cc2c1)N1CCN(C(=O)C2CC2)CC1 [Compound 72]
plant damage (very good to excellent levels of control efficacy: 30% or less plant damage and/or 100% mortality) [1]: ≤ 30%

O=C(NCC(F)(F)F)c1cccc2nn(-c3cncnc3)cc12 [Compound 301]
mortality ([3]; sprayed at 50 ppm): at least 80% | mortality ([3]; sprayed at 250 ppm): at least 80%

COCC(C)NC(=O)c1ccc2nn(-c3cncc(F)c3)cc2c1 (centres unmarked) [Compound 370]
mortality ([3]; sprayed at 250 ppm): at least 80% | mortality ([4]; sprayed at 250 ppm): at least 80%

NC(=S)c1ccc2nn(-c3cccnc3)cc2c1 [Compound 349]
mortality [5]: at least 50%

O=C(c1ccc2nn(-c3cncc(F)c3)cc2c1)N1CCC1 [Compound 382]
mortality ([3]; sprayed at 50 ppm): at least 80% | mortality ([3]; sprayed at 250 ppm): at least 80%

COC(=O)NNC(=O)c1ccc2nn(-c3cncc(F)c3)cc2c1 [Compound 375]
mortality ([3]; sprayed at 50 ppm): at least 80% | mortality ([3]; sprayed at 250 ppm): at least 80%

O=C(NCc1ncccn1)c1ccc(F)c2nn(-c3cccnc3)cc12 [Compound 300]
mortality ([3]; sprayed at 250 ppm): at least 80%

O=C(NCc1cncnc1)c1ccc2nn(-c3cncnc3)cc2c1 [Compound 409]
mortality ([3]; sprayed at 250 ppm): at least 80% | plant damage (very good to excellent levels of control efficacy: 30% or less plant damage and/or 100% mortality) [1]: ≤ 30%

O=C(NCC1CCCO1)c1ccc2nn(-c3cncnc3)cc2c1 (centres unmarked) [Compound 386]
mortality ([3]; sprayed at 50 ppm): at least 80% | mortality ([3]; sprayed at 250 ppm): at least 80%

COC(CNC(=O)c1cccc2nn(-c3cncc(F)c3)cc12)OC [Compound 504]
plant damage (very good to excellent levels of control efficacy: 30% or less plant damage and/or 100% mortality) [1]: ≤ 30%

CSCCNC(=O)c1cccc2nn(-c3cccnc3)cc12 [Compound 13]
plant damage (very good to excellent levels of control efficacy: 30% or less plant damage and/or 100% mortality) [1]: ≤ 30%

CC(NC(=O)c1ccc2nn(-c3cncc(F)c3)cc2c1)C1CC1 (centres unmarked) [Compound 366]
mortality ([3]; sprayed at 250 ppm): at least 80%

O=C(NCC(F)(F)F)c1ccc2nn(-c3cncnc3)cc2c1 [Compound 387]
mortality ([3]; sprayed at 50 ppm): at least 80% | mortality ([3]; sprayed at 250 ppm): at least 80%

c1cncc(-n2cc3cc(-c4nnco4)ccc3n2)c1 [Compound 340]
plant damage (very good to excellent levels of control efficacy: 30% or less plant damage and/or 100% mortality) [1]: ≤ 30%

O=C(NC1CC1)c1ccc2nn(-c3cncnc3)cc2c1 [Compound 388]
mortality ([3]; sprayed at 50 ppm): at least 80% | mortality ([3]; sprayed at 250 ppm): at least 80%

O=C(NCC1CCCO1)c1ccc2nn(-c3cncc(F)c3)cc2c1 (centres unmarked) [Compound 131]
mortality ([3]; sprayed at 250 ppm): at least 80% | plant damage (very good to excellent levels of control efficacy: 30% or less plant damage and/or 100% mortality) [1]: ≤ 30%

COCC(C)NC(=O)c1ccc2nn(-c3cccnc3)cc2c1 (centres unmarked) [Compound 68]
plant damage (very good to excellent levels of control efficacy: 30% or less plant damage and/or 100% mortality) [1]: ≤ 30%

COC(CNC(=O)c1ccc2nn(-c3cncc(F)c3)cc2c1)OC [Compound 133]
mortality ([3]; sprayed at 250 ppm): at least 80% | plant damage (very good to excellent levels of control efficacy: 30% or less plant damage and/or 100% mortality) [1]: ≤ 30%

COC(=O)NNC(=O)c1ccc2nn(-c3cncnc3)cc2c1 [Compound 380]
mortality ([3]; sprayed at 50 ppm): at least 80% | mortality ([3]; sprayed at 250 ppm): at least 80%

FC(F)(F)c1ccc(-c2ccc3nn(-c4cccnc4)cc3c2)nc1 [Compound 348]
plant damage (very good to excellent levels of control efficacy: 30% or less plant damage and/or 100% mortality) [1]: ≤ 30%

O=C(NCCF)c1ccc2nn(-c3cccnc3)cc2c1 [Compound 344]
feeding damage (very good to excellent levels of control efficacy: 40% or less feeding damage and/or 100% mortality) [2]: ≤ 40%

CC(C)NC(=O)c1ccc(F)c2nn(-c3cccnc3)cc12 [Compound 501]
feeding damage (very good to excellent levels of control efficacy: 40% or less feeding damage and/or 100% mortality) [2]: ≤ 40%

CC(C)N(CCNC(=O)c1ccc2nn(-c3cccnc3)cc2c1)C(C)C [Compound 70]
plant damage (very good to excellent levels of control efficacy: 30% or less plant damage and/or 100% mortality) [1]: ≤ 30%

CC(C)C(NC(=O)c1ccc2nn(-c3cncc(F)c3)cc2c1)C(F)(F)F (centres unmarked) [Compound 368]
mortality ([3]; sprayed at 250 ppm): at least 80% | mortality [5]: at least 50%

CC(C)NC(=O)c1cccc2nn(-c3cncc(F)c3)cc12 [Compound 309]
feeding damage (very good to excellent levels of control efficacy: 40% or less feeding damage and/or 100% mortality) [2]: ≤ 40% | mortality ([3]; sprayed at 50 ppm): at least 80% | mortality ([3]; sprayed at 250 ppm): at least 80%

CN(CC(F)(F)F)C(=O)c1ccc2nn(-c3cccnc3)cc2c1 [Compound 64]
plant damage (very good to excellent levels of control efficacy: 30% or less plant damage and/or 100% mortality) [1]: ≤ 30%

COCC(COC)NC(=O)c1ccc2nn(-c3cncc(F)c3)cc2c1 [Compound 367]
mortality ([3]; sprayed at 250 ppm): at least 80% | plant damage (very good to excellent levels of control efficacy: 30% or less plant damage and/or 100% mortality) [1]: ≤ 30%

O=C(NCc1ncccn1)c1cccc2nn(-c3cccnc3)cc12 [Compound 21]
mortality ([3]; sprayed at 250 ppm): at least 80%

COC(=O)NNC(=O)c1ccc2cn(-c3cccnc3)nc2c1 [Compound 431]
feeding damage (very good to excellent levels of control efficacy: 40% or less feeding damage and/or 100% mortality) [2]: ≤ 40%

CCC(C)C(=O)Nc1ccc2nn(-c3cccnc3)cc2c1 (centres unmarked) [Compound 360]
mortality [5]: at least 50%

c1cncc(-n2cc3cc(-c4ncco4)ccc3n2)c1 [Compound 321]
mortality ([4]; sprayed at 250 ppm): at least 80% | mortality [5]: at least 50%

O=C(NCC1CCCO1)c1ccc2nc(-c3cccnc3)cn2c1 (centres unmarked) [Compound 456]
mortality ([4]; sprayed at 250 ppm): at least 80% | mortality [5]: at least 50%

CC(C)(C)SCCNC(=O)c1cccc2nc(-c3cccnc3)sc12 [Compound 85]
mortality ([4]; sprayed at 50 ppm): at least 80% | mortality ([4]; sprayed at 250 ppm): at least 80%

O=C(NNC(=O)c1ccc2nn(-c3cccnc3)cc2c1)c1ccccc1 [Compound 378]
mortality ([4]; sprayed at 50 ppm): at least 80% | mortality ([4]; sprayed at 250 ppm): at least 80%

O=C(NCC1CCCO1)c1ccc2nc(-c3cncc(F)c3)sc2c1 (centres unmarked) [Compound 122]
mortality ([4]; sprayed at 50 ppm): at least 80% | mortality ([4]; sprayed at 250 ppm): at least 80%

O=C(NNC(=O)c1ccco1)c1ccc2nn(-c3cccnc3)cc2c1 [Compound 377]
mortality ([4]; sprayed at 250 ppm): at least 80%

CC(C)NC(=O)c1cccc2nc(-c3cccnc3)sc12 [Compound 81]
mortality ([4]; sprayed at 50 ppm): at least 80% | mortality ([4]; sprayed at 250 ppm): at least 80%

CC(C)NC(=O)c1ccc2nn(-c3cccnc3)cc2c1 [Compound 35]
mortality ([4]; sprayed at 50 ppm): at least 80% | mortality ([4]; sprayed at 250 ppm): at least 80%

O=C(NCC1CC1)c1ccc2nc(-c3cccnc3)oc2c1 [Compound 446]
mortality ([4]; sprayed at 50 ppm): at least 80% | mortality ([4]; sprayed at 250 ppm): at least 80%

CN(C)CCNC(=O)c1ccc2nn(-c3cccnc3)cc2c1 [Compound 339]
mortality [5]: at least 50%

O=C(c1cccc2nn(-c3cccnc3)cc12)N1CCCC1 [Compound 1]
mortality ([4]; sprayed at 250 ppm): at least 80%

CSCC(C)(C)NC(=O)c1ccc2nc(-c3cccnc3)sc2c1 [Compound 97]
mortality ([4]; sprayed at 250 ppm): at least 80%

c1cncc(-c2ccc3nn(-c4cccnc4)cc3c2)c1 [Compound 325]
mortality ([4]; sprayed at 50 ppm): at least 80%

CC1(C)OCC(CNC(=O)c2ccc3nn(-c4cccnc4)cc3c2)O1 (centres unmarked) [Compound 73]
mortality ([4]; sprayed at 50 ppm): at least 80% | mortality ([4]; sprayed at 250 ppm): at least 80%

CCOC(=O)CSc1nccc(-c2ccc3nn(-c4cccnc4)cc3c2)n1 [Compound 341]
mortality ([4]; sprayed at 250 ppm): at least 80%

CCC(C)NC(=O)c1ccc2nn(-c3cccnc3)cc2c1 (centres unmarked) [Compound 372]
mortality ([4]; sprayed at 250 ppm): at least 80%

COCCNC(=O)c1ccc2nn(-c3cccnc3)cc2c1 [Compound 331]
mortality ([4]; sprayed at 50 ppm): at least 80% | mortality ([4]; sprayed at 250 ppm): at least 80%

— patent publication US11578085B2, “Heterocycle-substituted bicyclic azole pesticides” (FMC CORPORATION, priority 2013, dated 2023)
